Laboratory results reported in patent publication US20260248969A1, “PEPTIDE MULTIMER PRODUCTS AND METHODS” (REGENTS OF THE UNIVERSITY OF MICHIGAN, priority 2023, published 2026).
Results are given in words; binding and its absence hold for the method and conditions named. Some binding calls cover weakened binding; strength is not graded here.

Chains of the proteins cited; added tags and fusions are not shown. Residues count along the entry.
UniProt P16070, residues 21-742: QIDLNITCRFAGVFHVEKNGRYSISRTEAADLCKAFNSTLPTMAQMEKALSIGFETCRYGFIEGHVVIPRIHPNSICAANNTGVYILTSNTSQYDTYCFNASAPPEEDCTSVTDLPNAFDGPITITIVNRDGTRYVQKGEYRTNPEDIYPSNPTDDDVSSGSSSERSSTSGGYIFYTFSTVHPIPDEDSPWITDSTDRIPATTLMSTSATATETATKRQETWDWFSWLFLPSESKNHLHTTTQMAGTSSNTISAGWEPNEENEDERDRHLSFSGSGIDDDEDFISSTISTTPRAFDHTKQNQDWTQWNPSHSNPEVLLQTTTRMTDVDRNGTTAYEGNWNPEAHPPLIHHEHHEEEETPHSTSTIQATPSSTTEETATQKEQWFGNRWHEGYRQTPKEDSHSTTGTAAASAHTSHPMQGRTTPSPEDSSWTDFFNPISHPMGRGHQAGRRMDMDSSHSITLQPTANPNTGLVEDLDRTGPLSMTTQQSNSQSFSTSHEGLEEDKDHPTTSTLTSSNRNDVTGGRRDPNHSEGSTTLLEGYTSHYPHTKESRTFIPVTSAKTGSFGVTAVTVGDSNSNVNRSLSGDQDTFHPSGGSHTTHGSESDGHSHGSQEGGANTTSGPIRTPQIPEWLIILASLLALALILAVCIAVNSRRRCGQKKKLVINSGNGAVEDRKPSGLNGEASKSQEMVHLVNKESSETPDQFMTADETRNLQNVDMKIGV

Molecular target: T1, CD44 (cluster of differentiation 44) (human, UniProt P16070 21-742)
T1 construct: whole, on cells; Endogenous target on human HCC cells and tissues; no recombinant protein was used
Test: fluorescence microscopy, 5 uM on CCA-156 cells

binding: binds
Binder: WKGWSYLWTQQA (Cy5.5 label; site of attachment and any linker not stated) [WKG*-Cy5.5 (Cy5.5-labeled CD44 peptide monomer, …)]
